The test system of this series is trypsin. Put plainly: SABRE-hyperpolarized single-scan CPMG R2 relaxation of ligand 4-amidinopyridine with or without trypsin. It is filed as binding. The following applies: for R2 relaxation rate: no protein. How it is done: In the instant example, hydrogen gas enriched to a level of ˜50% para-content was prepared by passing room temperature hydrogen gas over iron (III) oxide spin-flip catalyst (Sigma-Aldrich, St. Louis, Mo.) in a heat exchanger, which was immersed in liquid nitrogen The ligand sample for hyperpolarization comprises 20 mM 4-amidinopyridine hydrochloride (Alfa Aesar, Ward Hill, Mass.) in methanol-d4 (Cambridge Isotope Libraries, Andover, Mass.) The sample contained 3.5 mM of the pre-catalyst [Ir(Me)(IMes)COD]Cl, which was synthesized according to a previously established protocol. For the experiments at low concentration, this stock solution of ligand was diluted to 1.5 mM and 0.3 mM catalyst. For the SABRE experiments, the para-enriched hydrogen was bubbled through the sample solution at a pressure of 8.3·10^5 Pa and at 294 K. Bubbling was performed for 30 s at a field of 6.5 mT generated by a solenoid coil (diameter 22 cm and length 28 cm). After this polarization transfer step, the sample was pushed to a sample loop using the pressure of the H2 gas. The hyperpolarized sample was injected into a NMR flow-cell concomitantly with a sample of 50 mM sodium phosphate buffer in D2O (pH 7.5), or a sample of trypsin (Alfa Aesar) at 1 mM or 18 μM dissolved in the same buffer. Where indicated, 2,2′-bipyridine (Sigma-Aldrich) at 10 mM or 2.5 mM concentration was included with the protein solution. The two solutions mixed in a Y-mixer before entering the magnet. The sample injector that was used for this purpose is described elsewhere. Briefly, both samples were pushed from an injection loop made of poly ether ether ketone (PEEK) tubing of 0.5 mm inner diameter. Two high pressure syringe pumps (Models 500D and 1000D, Teledyne Isco, Lincoln, Nebr.) were filled with water and used to transfer the sample from the injection loop to the Y-mixer and subsequently into the flow-cell. Flow rates were set to 110 ml/minute and 150 ml/minute, respectively. The injection time was 128 ms, during which the pump was active before sample mixing. […]

Structures are written as SMILES.

In the case of `N=C(N)c1ccncc1` [4-amidinopyridine], the R2 relaxation rate was 0.86 ± 0.15 s⁻¹ (hyperpolarized ligand ~7 mM + catalyst + chelating ligand 2,2′-bipyridine) and 2.30 ± 0.44 s⁻¹ (hyperpolarized ligand ~7 mM + polarization transfer catalyst, no 2,2′-bipyridine). In addition, the “R2 relaxation rate of free reporter ligand, R2,r^(f)” value (hyperpolarized, 144-160 μM, catalyst and 2,2′-bipyridine, absence of trypsin) was 0.47 ± 0.01 s⁻¹.

The record behind these values is US20230072083A1, “SYSTEM AND METHOD FOR SCREENING OF PROTEIN-LIGAND INTERACTIONS USING PARA-HYDROGEN POLARIZATION AND NMR” (THE TEXAS A&M UNIVERSITY SYSTEM, priority 2021, published 2023).
